# In the supplement of paper PMC9135407:
# Values joined by “and” are separate entries in the source; they are usually repeats but may differ in a detail not shown here. Equal entries are not always repeated. Structures can show the parent of a compound that is named as a salt. ± gives the standard deviation of the averaged measurements. The list shows a part of the results. Plates or batches differ in their baseline, so values are only roughly comparable.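 Culture-activated primary human stellate myofibroblasts, where regained lipid droplets signal inactivation. Value: share of Hoechst-counted cells above a per-plate Bodipy cutoff, in duplicate wells, with DMSO negative and nortriptyline positive controls on each plate. Hits: a control-normalized score above the plate's top-tenth-percentile nortriptyline wells, or one of a plate's three best wells. Final well concentrations are not given.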
# System: primary human hepatic stellate cells (donor 1)
# Assay: percent Bodipy-positive cells; higher = more lipid droplet accumulation
# Conditions: 48 h
# [1] = library stock concentration: 4.5 mM
# [2] = library stock concentration: 10 mM
# [3] = library stock concentration: 80 uM
# [4] = library stock concentration: 400 uM
# [5] = library stock concentration: 2 mM
# [6] = library stock concentration: 3.33 mM
# [7] = library stock concentration: 1 mM
smiles,measurement,setting,value
Nc1nc(=O)c2nc(CNc3ccc(C(=O)N[C@@H](CCC(=O)O)C(=O)O)cc3)cnc2[nH]1 [Folic acid],percent Bodipy-positive cells,,40 ± 12%
same,percent Bodipy-positive cells,[1],14.3 ± 0.8%
same,percent Bodipy-positive cells,[2],32.8% and 30.3%
Nc1nc(F)nc2c1ncn2[C@@H]1O[C@H](CO)[C@@H](O)[C@@H]1O [Fludarabine],percent Bodipy-positive cells,[2],62 ± 5.6%
Nc1nc(F)nc2c1ncn2[C@@H]1O[C@H](CO)[C@@H](O)[C@@H]1O,percent Bodipy-positive cells,[2],91.73 ± 0.37%
CC(=O)c1cnc2ccc(-c3cc(Cl)c(O)c(Cl)c3)nc2c1N[C@H]1CC[C@H](CN(C)C)CC1,percent Bodipy-positive cells,[3],50.7 ± 8.8%
same,percent Bodipy-positive cells,[4],68.3 ± 6%
same,percent Bodipy-positive cells,[5],71.6 ± 2.5%
CC[C@H]1OC(=O)[C@H](C)[C@@H](O[C@H]2C[C@@](C)(OC)[C@@H](O)[C@H](C)O2)[C@H](C)[C@@H](O[C@@H]2O[C@H](C)C[C@H](N(C)C)[C@H]2O)[C@](C)(O)C[C@@H](C)/C(=N\OCOCCOC)[C@H](C)[C@@H](O)[C@]1(C)O [Roxithromycin],percent Bodipy-positive cells,,9.84 ± 6.2%
same,percent Bodipy-positive cells,[6],6.62 ± 1.9%
same,percent Bodipy-positive cells,[2],27.6% and 36.8%
"N#CC(Cc1ccc(O)cc1)c1ccc(O)cc1 (configuration not stated) [2,3-bis (4-Hydroxyphenyl) Propionitrile]",percent Bodipy-positive cells,[7],7.11 ± 1%
CC(C)n1cnc2c(NCCc3ccc(O)cc3)nc(-c3csc4ccccc34)nc21 [StemRegenin 1 (SR1)],percent Bodipy-positive cells,[2],84.6 ± 5%
CC[C@@H]([C@H](C)O)n1ncn(-c2ccc(N3CCN(c4ccc(OC[C@@H]5CO[C@@](Cn6cncn6)(c6ccc(F)cc6F)C5)cc4)CC3)cc2)c1=O [Posaconazole],percent Bodipy-positive cells,[2],70.3 ± 6.2%
CCCCC/C=C\CCCCCCCCCCCCC(=O)O [14(Z)-Eicosenoic Acid],percent Bodipy-positive cells,[7],14.4 ± 7.2%
COc1c2ccoc2nc2c(OC)c(OCC(O)C(C)(C)O)ccc12 (configuration not stated) [Evoxine],percent Bodipy-positive cells,,8.18 ± 0.94%
CC(C)NCC(O)COc1ccc(COCCOC(C)C)cc1 (configuration not stated) [(?)-Bisoprolol hemifumarate],percent Bodipy-positive cells,[2],9.54 ± 1.9%
CC(C)NCC(O)COc1ccc(COCCOC(C)C)cc1 (configuration not stated) [Bisoprolol fumarate],percent Bodipy-positive cells,,25.4 ± 8.2%
same,percent Bodipy-positive cells,[6],6.04 ± 1.2%
same,percent Bodipy-positive cells,[1],1.75 ± 0.82%
same,percent Bodipy-positive cells,[2],17.4 ± 3.9%
CC(C)NCC(O)COc1ccc(COCCOC(C)C)cc1 (configuration not stated) [Bisoprolol hemifumarate salt],percent Bodipy-positive cells,[2],59.5 ± 14%
CC(C)NCC(O)COc1ccc(COCCOC(C)C)cc1 (configuration not stated),percent Bodipy-positive cells,[2],15.014 ± 0.00071%
Nc1nc(=S)c2ncn([C@@H]3O[C@H](CO)[C@@H](O)[C@H]3O)c2[nH]1 [Thioguanosine],percent Bodipy-positive cells,,32.8 ± 3%
O=C1CN2Cc3c(ccc(Cl)c3Cl)N=C2N1 [Anagrelide HCl],percent Bodipy-positive cells,[6],23.9 ± 9.7%
same,percent Bodipy-positive cells,[2],66.5 ± 2.5%
O=C1CN2Cc3c(ccc(Cl)c3Cl)N=C2N1 [Anagrelide],percent Bodipy-positive cells,library stock concentration: 7.8 mM,18 ± 0.19%
O=C1CN2Cc3c(ccc(Cl)c3Cl)N=C2N1,percent Bodipy-positive cells,[2],9.48 ± 2.1%
O=C1CN2Cc3c(ccc(Cl)c3Cl)N=C2N1 [Anagrelide hydrochloride],percent Bodipy-positive cells,library stock concentration: 6.8 mM,15.3 ± 4.3%
C#CCCCCCCCCCCCC(O)CC(O)CO (configuration not stated) [Avocadyne],percent Bodipy-positive cells,[2],43.9 ± 15%
CCCCCC(O)C=CC1C(O)CC(=O)C1CCCCCCC(=O)O (configuration not stated) [8-iso Prostaglandin E1],percent Bodipy-positive cells,[7],20.7 ± 2.7%
CCCCCC(O)C=CC1C(O)CC(=O)C1CCCCCCC(=O)O [15(R)-Prostaglandin E1],percent Bodipy-positive cells,[7],16.7 ± 1.3%
"CCCCC[C@H](O)/C=C/[C@@H]1[C@@H](C/C=C\CCCC(=O)O)[C@@H](O)C[C@@H]1O [9a,11b-Prostaglandin F2]",percent Bodipy-positive cells,[7],15.3 ± 13%
CCCCC[C@H](O)/C=C/[C@@H]1[C@@H](C/C=C\CCCC(=O)O)[C@@H](O)C[C@@H]1O [11.beta.-Prostaglandin F2.alpha.],percent Bodipy-positive cells,[7],15.4 ± 0.72%
Nc1nc(Cl)nc2c1ncn2[C@@H]1O[C@H](CO)[C@@H](O)[C@@H]1F [Clofarabine],percent Bodipy-positive cells,[6],32.8 ± 18%
same,percent Bodipy-positive cells,library stock concentration: 6.6 mM,12.8 ± 10%
CCCCCCCCCCCCCCCCOCC(CO)OC(C)=O (configuration not stated) [1-Hexadecyl-2-O-acetyl-glycerol],percent Bodipy-positive cells,[7],5.53 ± 2.9%
CCCCCCCCCCCCCCOc1ccc(C(=O)O)o1,percent Bodipy-positive cells,[7],14.7 ± 3.6%
Cc1cc(C)c(N(Cc2ccccc2)S(=O)(=O)c2ccc(OCCNC(=O)c3cc4ccccc4o3)cc2)c(C(=O)NO)c1,percent Bodipy-positive cells,[2],6.52 ± 1.7%
CC(N)=O [Acetamide],percent Bodipy-positive cells,[2],39.6 ± 0.96%
CCCCCCCCCCCCCCCCCCOC[C@H](COP(=O)([O-])OCC[N+](C)(C)C)OC(C)=O,percent Bodipy-positive cells,[7],14.9% and 10.1%
CN1CC[C@H](c2c(O)cc(O)c3c(=O)cc(-c4ccccc4Cl)oc23)[C@H](O)C1 [Flavopiridol],percent Bodipy-positive cells,[3],47.6 ± 4.4%
same,percent Bodipy-positive cells,[4],46.7 ± 2.4%
same,percent Bodipy-positive cells,[5],50.9 ± 5.6%
same,percent Bodipy-positive cells,[2],38.4 ± 4.3%
CN1CC[C@H](c2c(O)cc(O)c3c(=O)cc(-c4ccccc4Cl)oc23)[C@H](O)C1,percent Bodipy-positive cells,[4],65.4 ± 12%
same,percent Bodipy-positive cells,[5],67.1 ± 13%
same,percent Bodipy-positive cells,[2],44.9 ± 8%
CN1CC[C@H](c2c(O)cc(O)c3c(=O)cc(-c4ccccc4Cl)oc23)[C@H](O)C1 [Flavopiridol HCl],percent Bodipy-positive cells,[6],61.4 ± 11%
same,percent Bodipy-positive cells,[2],61.6 ± 14%
COc1ccc(-c2cc(=O)c3c(O)cc(O)cc3o2)cc1O [Diosmetin],percent Bodipy-positive cells,[6],9.33 ± 0.13%
same,percent Bodipy-positive cells,[2],24.8 ± 0.92%
CC/C=C\C/C=C\C/C=C\CCCCCCCC(=O)NCCO [.alpha.-Linolenoyl Ethanolamide],percent Bodipy-positive cells,[7],7.93 ± 0.39%
CC(=O)OCC(COC(C)=O)OC(C)=O [Triacetin],percent Bodipy-positive cells,library stock concentration: 9.2 mM,12.7 ± 1.2%
same,percent Bodipy-positive cells,[2],32.3 ± 14%
NC[C@H]1O[C@@H](n2cnc3c(N)ncnc32)[C@H](O)[C@@H]1O [5'-Amino-5'-deoxyadenosine p-toluenesulfonate salt],percent Bodipy-positive cells,[2],44.7 ± 12%
C[C@@H](N)[C@H]1CC[C@H](C(=O)Nc2ccncc2)CC1,percent Bodipy-positive cells,[3],15.8 ± 11%
same,percent Bodipy-positive cells,[4],7.63 ± 1.9%
same,percent Bodipy-positive cells,[5],16.1 ± 2.3%
same,percent Bodipy-positive cells,[6],3.78 ± 1.7%
same,percent Bodipy-positive cells,library stock concentration: 20.2 mM,15.5 ± 0.3%
c1cnc2cc3c(cc2n1)[C@@H]1CNC[C@H]3C1 [Varenicline tartrate],percent Bodipy-positive cells,[2],40.9 ± 1.3%

# In another format: results already given
smiles | measurement | setting | value
CCCCCCCCCCCCCCCCCCOC[C@H](COP(=O)([O-])OCC[N+](C)(C)C)OC(C)=O | percent Bodipy-positive cells | [7] | 14.9% and 10.1%
C[C@@H](N)[C@H]1CC[C@H](C(=O)Nc2ccncc2)CC1 | percent Bodipy-positive cells | [6] | 3.78 ± 1.7%

# 2 entries drawn at random from the list so far:
smiles,measurement,setting,value
CN1CC[C@H](c2c(O)cc(O)c3c(=O)cc(-c4ccccc4Cl)oc23)[C@H](O)C1,percent Bodipy-positive cells,[2],44.9 ± 8%
CCCCC/C=C\CCCCCCCCCCCCC(=O)O [14(Z)-Eicosenoic Acid],percent Bodipy-positive cells,[7],14.4 ± 7.2%
